{
  "source": "paper PMC3529859",
  "about": "(Leukemia, 2012)",
  "key": {"HMC 1.1 cells": {"tested_on": "HMC 1.1 cells", "experiment": "CyQuant cell proliferation assay", "type": "cell-based", "details": "Homo sapiens, 72 h, read-out: IC50 HMC 1.1 proliferation"}, "HMC 1.2 cells": {"tested_on": "HMC 1.2 cells", "experiment": "CyQuant cell proliferation assay", "type": "cell-based, human", "details": "72 h, cells bearing KIT D816V"}},
  "data": [
    {"smiles": "Cc1ccc(NC(=O)c2ccc(CN3CCN(C)CC3)cc2)cc1Nc1nccc(-c2cccnc2)n1", "note": "[imatinib]", "values": [
      {"measurement": "IC50", "setting": "HMC 1.1 cells", "result": 10, "unit": "nM"},
      {"measurement": "IC50 HMC 1.2 proliferation", "setting": "HMC 1.2 cells", "result": "no activity"}
    ]}
  ]
}
